{"source": "ChEMBL document CHEMBL4665629", "about": "“An optimised series of substituted N-phenylpyrrolamides as DNA gyrase B inhibitors” (Eur J Med Chem, 2019)", "system": "Pseudomonas aeruginosa", "test": "microbe, parasite or virus in culture", "details": "ATCC 27853", "data": [{"smiles": "O=C(O)c1cn(C2CC2)c2cc(N3CCNCC3)c(F)cc2c1=O", "note": "[CIPROFLOXACIN]", "values": [{"measurement": "MIC", "result": 1.81, "unit": "µM"}]}]}
